Taken from: PubChem BioAssay AID1224830 (NIAID, 2016)
Aim: 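Host factors that control LPS-induced TNF expression in human macrophages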 (primary screen). Cells: human THP-1 monocytic leukaemia cells, TNF dual-luciferase reporter clone, PMA-differentiated to macrophage-like cells. Reagent: siRNA pool against human genes, 50 nM. Time to read-out: LPS for 4 h, given about 3 days after siRNA transfection. Challenge: bacterial LPS (TLR4 ligand), 10 ng/ml. Detection: 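Ratio of firefly to renilla light, scaled to the plate median and expressed as a robust z-score per replicate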. Scale: TNF reporter robust z-score: higher = stronger TNF reporter response to LPS. Hit rule: 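Each well counts as active if its z-score is over 2.8 or under -1.5; controls are left without a call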.
Shown is a random part of about 18,000 reagents. Of all reagents, about 2,900 (16%) got an active call. 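Calls are made per well; low scores hint the gene aids the LPS response, high scores that it dampens it.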 Repeated entries: four replicate wells of each siRNA pool.

gene,TNF reporter robust z-score,activity call
GPR52,-0.02,inactive
GPR52,0.4,inactive
GPR52,0.05,inactive
GPR52,-0.13,inactive
F8A1,,inactive
ZIC1,0.72,inactive
ZIC1,-0.12,inactive
ZIC1,-0.53,inactive
ZIC1,-0.03,inactive
PRR36,-0.55,inactive
PRR36,-0.06,inactive
PRR36,0.49,inactive
PRR36,0.15,inactive
C1orf210,-0.64,inactive
C1orf210,-0.29,inactive
C1orf210,-0.56,inactive
C1orf210,0.54,inactive
PLA2G4C,1.21,inactive
PLA2G4C,1.7,inactive
PLA2G4C,0.79,inactive
PLA2G4C,0.94,inactive
FRMD3,0.78,inactive
FRMD3,1.09,inactive
FRMD3,1.78,inactive
FRMD3,1.83,inactive
TTC33,1.7,inactive
TTC33,4.46,active
TTC33,1.63,inactive
TTC33,3.9,active
CD8A,0.85,inactive
CD8A,2.25,inactive
CD8A,1.45,inactive
CD8A,1.06,inactive
TMCC3,0.69,inactive
TMCC3,-0.3,inactive
TMCC3,0.51,inactive
TMCC3,0.95,inactive
CSPP1,0.87,inactive
CSPP1,-0.03,inactive
CSPP1,0.41,inactive
CSPP1,1.01,inactive
TMEM203,-1.28,inactive
TMEM203,-1.51,active
TMEM203,-1.67,active
TMEM203,-1.58,active
OR5H2,0.26,inactive
OR5H2,0.66,inactive
OR5H2,0.29,inactive
OR5H2,-0.17,inactive
ZNF354C,-0.2,inactive
ZNF354C,0.29,inactive
ZNF354C,5.19,active
ZNF354C,0.18,inactive
DHX38,1.63,inactive
DHX38,3.85,active
DHX38,2.56,inactive
DHX38,0.4,inactive
C21orf91,0.27,inactive
C21orf91,-0.17,inactive
C21orf91,1.26,inactive
C21orf91,0.25,inactive
PCDHB7,0.46,inactive
PCDHB7,0.74,inactive
PCDHB7,0.43,inactive
PCDHB7,0.15,inactive
RAC1,2.38,inactive
RAC1,2.45,inactive
RAC1,0.95,inactive
RAC1,1.53,inactive
LNX1,0.79,inactive
LNX1,-0.28,inactive
LNX1,-0.22,inactive
LNX1,-1.78,active
INPP4B,-1.25,inactive
INPP4B,0.34,inactive
INPP4B,-0.27,inactive
INPP4B,-1.32,inactive
MAPKAPK3,-0.55,inactive
MAPKAPK3,-1.53,active
MAPKAPK3,-0.68,inactive
MAPKAPK3,-1.42,inactive
TRAF5,0.37,inactive
TRAF5,-0.37,inactive
TRAF5,0.22,inactive
TRAF5,-1.22,inactive
DEF6,0.06,inactive
DEF6,0.34,inactive
DEF6,-1.07,inactive
DEF6,0.46,inactive
CADM4,0.18,inactive
CADM4,0.47,inactive
CADM4,-0.37,inactive
CADM4,-1.56,active
ZP2,0.21,inactive
ZP2,0.29,inactive
ZP2,1.75,inactive
ZP2,3.31,active
IRF8,0.36,inactive
IRF8,-0.5,inactive
IRF8,-1.13,inactive
HEPACAM,-0.89,inactive
HEPACAM,-0.44,inactive
HEPACAM,-0.6,inactive
HEPACAM,0.42,inactive
RAB3GAP2,0.26,inactive
RAB3GAP2,0.61,inactive
RAB3GAP2,-1.26,inactive
RAB3GAP2,0.04,inactive
CARS1,1.36,inactive
CARS1,2.08,inactive
CARS1,-0.59,inactive
CARS1,1.78,inactive
MREG,1.5,inactive
MREG,0.1,inactive
MREG,-0.8,inactive
MREG,0.36,inactive
LINC01973,-0.48,inactive
LINC01973,0.14,inactive
LINC01973,3.52,active
LINC01973,4.74,active
VAV2,0.18,inactive
VAV2,-0.3,inactive
VAV2,-0.63,inactive
VAV2,-1.2,inactive
ZNF385A,-0.72,inactive
ZNF385A,-1.35,inactive
ZNF385A,-0.92,inactive
ZNF385A,-0.98,inactive
ZNF461,-0.14,inactive
ZNF461,-0.32,inactive
ZNF461,1.35,inactive
ZNF461,1.73,inactive
FAM110B,-0.19,inactive
FAM110B,0.5,inactive
FAM110B,-0.22,inactive
FAM110B,-0.05,inactive
ZNF804A,-0.25,inactive
ZNF804A,-0.44,inactive
ZNF804A,-0.48,inactive
ZNF804A,0.31,inactive

Reformatted: results already given
| gene | TNF reporter robust z-score | activity call |
| --- | --- | --- |
| LINC01973 | -0.48 | inactive |
| LINC01973 | 0.14 | inactive |
| LINC01973 | 3.52 | active |
| LINC01973 | 4.74 | active |
| VAV2 | 0.18 | inactive |
| VAV2 | -0.3 | inactive |
| VAV2 | -0.63 | inactive |
| VAV2 | -1.2 | inactive |
| ZNF385A | -0.72 | inactive |
| ZNF385A | -1.35 | inactive |
| ZNF385A | -0.92 | inactive |
| ZNF385A | -0.98 | inactive |
| ZNF461 | -0.14 | inactive |
| ZNF461 | -0.32 | inactive |
| ZNF461 | 1.35 | inactive |
| ZNF461 | 1.73 | inactive |
| FAM110B | -0.19 | inactive |
| FAM110B | 0.5 | inactive |
| FAM110B | -0.22 | inactive |
| FAM110B | -0.05 | inactive |
